These results are taken from PMC10165932, “Tripeptides conjugated with thiosemicarbazones: new inhibitors of tyrosinase for cosmeceutical use” (Journal of Enzyme Inhibition and Medicinal Chemistry, 2023).

By UniProt entry, the sequences of proteins in these tests, tags left out. Residues count along the entry.
UniProt C7FF04, 1-392 limits assumed: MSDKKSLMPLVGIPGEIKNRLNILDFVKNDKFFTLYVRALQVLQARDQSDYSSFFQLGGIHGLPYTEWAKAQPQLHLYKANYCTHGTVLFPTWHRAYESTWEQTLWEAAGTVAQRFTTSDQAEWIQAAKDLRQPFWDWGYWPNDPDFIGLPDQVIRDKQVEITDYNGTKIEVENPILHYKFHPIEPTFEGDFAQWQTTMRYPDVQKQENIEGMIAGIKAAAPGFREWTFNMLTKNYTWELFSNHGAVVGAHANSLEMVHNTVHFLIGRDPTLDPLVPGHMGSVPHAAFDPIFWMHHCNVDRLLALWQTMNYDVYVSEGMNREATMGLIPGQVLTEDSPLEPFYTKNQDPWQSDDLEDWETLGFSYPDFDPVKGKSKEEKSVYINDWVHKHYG

In one experiment the target is mushroom tyrosinase (Agaricus bisporus, UniProt C7FF04). Kind of experiment: Tyrosinase inhibition assay (diphenolase activity, L-DOPA substrate). The format is biochemical. The conditions noted are these: L-DOPA 5 mM, n = 3.
In experiment [1] the test system is B16F0 murine melanoma cell line. In words: Cell proliferation assay (MTT). The conditions noted are these: read-out: IC50 of cell proliferation, 48 h, n = 3. The format is cell-based. On the procedure: B16F0 murine melanoma cell line was cultured in DMEM (Biowest, Nuaillé, France) medium supplemented with 100 U/ml streptomycin (Sigma-Aldrich, Taufkirchen, Germany), 100 U/ml penicillin (Sigma-Aldrich, Taufkirchen, Germany), and 10% foetal bovine serum (Sigma-Aldrich, Taufkirchen, Germany). Cells were maintained in 5% CO2 at 37 °C. Cells viability was estimated by MTT colorimetric assay as described by Bellei et al.[51] B16 cells were seeded into 96-well plate (4 × 10^3 cells/well) and incubated in the presence of the investigated compounds at various concentrations (1000, 400, 100, 40, 10, 1, 0.1 μM) for 48 h. Kojic acid and DMSO were used as controls. MTT was added into wells (0.625 mg/ml, Sigma-Aldrich, Taufkirchen, Germany) for the last 4 h. Then lysing buffer was added to dissolve insoluble formazan. The absorbance was measured (λ = 570 nm) using Thermo Lab Multiscan RC microplate reader.

Experiment [2] has the same test system. Kind of experiment: Measurement of melanin production in α-MSH-stimulated B16F0 cells. The format is cell-based. The conditions noted are these: for % Of melanogenesis inhibition at a specific inhibitor concentration: B16F0, 48 h; for IC50: read-out: IC50 of melanin production, B16F0, n = 3.

The match of structure and compound is tentative.

As to `NC(=S)N/N=C/c1ccc(C(=O)O)cc1`, the IC50 was 5.3 µM on mushroom tyrosinase, 114 µM in experiment [1] and 102 µM in experiment [2]. The “% Of melanogenesis inhibition at a specific inhibitor concentration” value in experiment [2] (10 µM) is given as 14%; in experiment [2] (40 µM), 30%.

`C/C(=N\NC(N)=S)c1ccc(C(=O)O)cc1`: the figures for the IC50 (at mushroom tyrosinase; in experiment [1]; in experiment [2]) were 5.8 µM, 113 µM and 126 µM, respectively. Further, the “% Of melanogenesis inhibition at a specific inhibitor concentration” value in experiment [2] (10 µM) is listed as 1%; in experiment [2] (40 µM), 13%.
